PubChem BioAssay AID602196 – INSERM | 2012
The deposit covers about 23,000 reagents; this is a part drawn at random. 455 of all reagents (2%) count as active. 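Active includes both protection and sensitisation; some change values fall well beyond the stated -50 to +50 range.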 A number with no mark means an inactive call. Further read-outs or replicates are left out here. Not given: the amount of reagent.

- Aim: 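Genes whose knock-down alters cisplatin killing of lung cancer cells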
- Cells: human A549 lung cancer cells
- Reagent: siRNA pair against human genes
- Duration: 48 h transfection before cisplatin; time from cisplatin to read-out not stated
- Conditions: cisplatin at a dose killing half of control-siRNA cells; exact dose and duration not given
- Read-out: 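Cisplatin cell death as a shift from the 50% death seen with control siRNA; siRNAs toxic or growth-blocking alone scored 0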
- Scale: two-siRNA summed score (-2 to +2): higher = both siRNAs protect from cisplatin killing; -2 means both sensitise; mean protection from cisplatin (shift in death) and protection from cisplatin (shift in death), siRNA C: higher = protection from cisplatin killing
- Call rule: 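Each siRNA scores 0 if harmful alone by LDH or WST-1, otherwise +1 if it reduces and -1 if it increases cisplatin killing; a gene is active when both siRNAs agree (sum +2 or -2)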
- Meaning of the calls: active = both siRNAs shift cisplatin killing the same way; inactive = no consistent shift, or siRNA harmful alone

gene knocked down	two-siRNA summed score (-2 to +2)	mean protection from cisplatin (shift in death) (%)	protection from cisplatin (shift in death), siRNA C (%)
LOC401098 (retired record)	0	-6.9	-11.7
OR12D2	-1	-6.1	-14.3
SLC26A1	0	4.3	-12.5
LOC388154	0	16.3	20.8
CCAR2	0	3.8	15.1
MOV10	0	5.3	10
FAAP100	0	2.4	2.7
AGO3	2 (active)	13.7	18.5
SACK1H	0	15.9	18.7
DDX39A	-1	-15	-12.1
SASH3	-1	-7.9	-3.4
KMT5B	0	-9.2	-15.1
SLC14A1	1	15.7	23.1
LOC391337	0	1.7	3.5
LOC256096	0	7.3	4.7
IGFBP4	0	6.8	-5.7
COA1	0	-3.8	-5.9
GFRA3	1	11.1	5.8
VEGFC	0	2.5	-3.2
GLB1	-1	-15.3	-34
CACNG1	-1	-6	-17.9
ALG8	0	2.3	-1.5
LOC441876	0	16.2	1.3

Reagents listed above marked active, once more:
gene knocked down	two-siRNA summed score (-2 to +2)	mean protection from cisplatin (shift in death) (%)	protection from cisplatin (shift in death), siRNA C (%)
AGO3	2 (active)	13.7	18.5
